Structures are written as SMILES.

The nature of the series: PAMPA (parallel artificial membrane permeability assay). Format: in vitro ADME. The procedure: 4 μL of a phospholipid-organic solvent solution composed of 10% (w/v) of egg lecithin, 0.5% (w/v) of cholesterol and dodecane (all purchased from Fluka) was added to a Millipore 96-well membrane filter (hydrophobic PVDF (polyvinylidene difluoride), pore size 0.45 microm) (purchased from Millipore Japan) to make an artificial phospholipid membrane.
A DMSO solution containing the compound at a concentration of 10 mM was added in a percentage of 0.5% (v/v) to a 50 mM MOPSO buffer, pH 6.5, containing 5.0% (w/v) of glycocholic acid, and 330 μL of the mixture was added to a 96-well plate made of Teflon (donor plate). […] These plates were allowed to stand at 37° C. for 18 hours, after which the concentrations of the compound in the solutions in the donor plate and the acceptor plate were measured by LC/MS or LC/UV, and the membrane permeation rate of the compound (Pe) was calculated by the following formulas (1) and (2), where t is the testing time, A is the membrane filter area, VD is the amount of the donor solution, VA is the amount of the acceptor solution, CD,t is the concentration of the compound in the donor solution at the time t, and CA,t is the concentration of the compound in the acceptor solution at the time t.

For the compound `NS(=O)(=O)c1cc(C(=O)O)c(NCc2ccco2)cc1Cl` [furosemide, reference compound], the apparent permeability coefficient (Papp) at 18 h, 50 µM is 1.5 ×10⁻⁶ cm/s.

(Values after patent publication US9409952B2, “Peptide-compound cyclization method” (Chugai Seiyaku Kabushiki Kaisha, priority 2011, dated 2016).)
